Assay results reported in publication PMC5986788, “Succinate induces aberrant mitochondrial fission in cardiomyocytes through GPR91 signaling” (Cell Death & Disease, 2018).
No constants are given. Whether binding was seen depends on the method and setting. Binding seen in cells or lysates may run through a third protein. Some binding calls cover weakened binding; strength is not graded here.

Chains of the proteins cited; added tags and fusions are not shown.
UniProt Q8K1M6: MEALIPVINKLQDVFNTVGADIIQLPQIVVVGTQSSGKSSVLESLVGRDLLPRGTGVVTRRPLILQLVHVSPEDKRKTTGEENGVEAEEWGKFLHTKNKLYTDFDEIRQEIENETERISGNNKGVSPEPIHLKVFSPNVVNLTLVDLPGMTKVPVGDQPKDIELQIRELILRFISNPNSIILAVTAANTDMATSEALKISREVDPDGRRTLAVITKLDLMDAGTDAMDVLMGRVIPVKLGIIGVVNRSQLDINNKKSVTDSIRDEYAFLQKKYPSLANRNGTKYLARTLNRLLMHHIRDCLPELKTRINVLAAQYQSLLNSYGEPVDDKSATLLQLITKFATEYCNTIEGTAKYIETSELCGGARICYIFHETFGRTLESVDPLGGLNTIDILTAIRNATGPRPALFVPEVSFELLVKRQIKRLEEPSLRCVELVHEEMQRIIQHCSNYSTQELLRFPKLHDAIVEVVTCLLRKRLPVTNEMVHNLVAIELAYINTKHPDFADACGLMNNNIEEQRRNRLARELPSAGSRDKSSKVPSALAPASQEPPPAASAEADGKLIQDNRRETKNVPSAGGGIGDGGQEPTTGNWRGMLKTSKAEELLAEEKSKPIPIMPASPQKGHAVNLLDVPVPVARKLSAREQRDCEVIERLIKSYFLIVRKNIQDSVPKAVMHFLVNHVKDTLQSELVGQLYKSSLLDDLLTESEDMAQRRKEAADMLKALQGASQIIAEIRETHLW

Target: T1, mitochondrial fission factor (MFF), mouse (mouse (endogenous in heart tissue)) (UniProt Q6PCP5)
T1 sequence: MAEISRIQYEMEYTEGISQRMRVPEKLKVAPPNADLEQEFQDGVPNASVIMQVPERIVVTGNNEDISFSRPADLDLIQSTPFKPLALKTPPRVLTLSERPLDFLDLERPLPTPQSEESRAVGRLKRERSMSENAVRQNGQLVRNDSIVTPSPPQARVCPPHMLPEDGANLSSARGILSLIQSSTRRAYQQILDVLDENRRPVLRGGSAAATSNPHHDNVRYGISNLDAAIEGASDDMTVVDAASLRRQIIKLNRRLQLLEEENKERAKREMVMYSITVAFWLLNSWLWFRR
Assay: co-IP; endogenous proteins in mouse cardiac tissue lysate; anti-Drp1 or anti-MFF antibody overnight at 4 °C, protein A+G agarose 2 h, western blot; mice given isoproterenol with or without dimethyl malonate

binding: binds
Substance: dynamin-related protein 1 (Drp1), mouse (from UniProt Q8K1M6 1-736)
